# Results from one PubChem assay

By UniProt entry, the sequences of proteins in these tests, tags left out.
UniProt O94782, whole entry, looked up, target on record: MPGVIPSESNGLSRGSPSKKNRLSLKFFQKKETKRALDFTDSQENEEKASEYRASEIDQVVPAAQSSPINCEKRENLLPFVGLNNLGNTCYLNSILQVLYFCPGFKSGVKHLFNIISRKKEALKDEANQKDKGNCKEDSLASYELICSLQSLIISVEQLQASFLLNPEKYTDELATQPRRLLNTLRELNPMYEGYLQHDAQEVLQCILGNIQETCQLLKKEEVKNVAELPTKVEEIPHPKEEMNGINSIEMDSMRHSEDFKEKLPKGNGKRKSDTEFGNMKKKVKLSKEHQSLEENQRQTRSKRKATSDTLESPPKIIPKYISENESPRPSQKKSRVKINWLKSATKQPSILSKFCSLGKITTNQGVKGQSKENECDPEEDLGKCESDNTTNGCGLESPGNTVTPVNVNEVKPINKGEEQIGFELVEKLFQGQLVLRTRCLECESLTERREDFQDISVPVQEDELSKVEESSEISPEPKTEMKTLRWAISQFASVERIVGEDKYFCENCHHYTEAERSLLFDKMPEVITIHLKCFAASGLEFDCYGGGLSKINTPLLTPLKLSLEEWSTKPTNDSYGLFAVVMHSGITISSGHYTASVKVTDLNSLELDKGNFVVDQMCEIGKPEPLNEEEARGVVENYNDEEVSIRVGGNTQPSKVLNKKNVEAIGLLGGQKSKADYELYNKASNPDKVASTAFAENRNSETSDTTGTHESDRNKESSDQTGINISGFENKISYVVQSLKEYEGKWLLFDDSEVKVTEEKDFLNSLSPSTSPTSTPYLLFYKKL

From PubChem BioAssay record AID504865 (NCATS, 2011).

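Fluorescent signal from cleaved Ub-rhodamine measures how much the isolated USP1/UAF1 deubiquitinase is inhibited, recorded over roughly six minutes.
Compounds were titrated over 13 concentrations from about 0.0037 µM up to roughly 110 µM, the top dose varying by compound.
The value is the fitted AC50 from the dose-response series, and a lower number means a more potent inhibitor.
Calls come from curve class and fitted log AC50: scores 40-100 are active, 1-39 inconclusive (as here, weak, partial or poorly fitted curves), and 0 inactive.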

Values are in nM.
Every entry below has the call inconclusive.
Only part of the assay is shown, chiefly results filed as inconclusive.
Potencies fitted to partial, single-point or poorly fitting curves are rough.
Some entries filed as inconclusive have a full curve.
Activity scores are not listed here.

Compound,potency (nM),curve as filed
CCC(=O)OC1CCC2C3CCc4cc(O)ccc4C3CC[C@]12C (stereo partly specified),28183,"inhibitor, full curve"
CC1CC2C3CC(F)C4=CC(=O)C=C[C@@]4(C)[C@@]3(F)C(O)C[C@]2(C)[C@]1(O)C(=O)COC(=O)C(C)(C)C (stereo partly specified),100000,"inhibitor, partial curve, poor fit"
CN(C)CCOc1ccc(/C(=C(/CCCl)c2ccccc2)c2ccccc2)cc1,39810,"inhibitor, partial curve, poor fit"
CS(=O)(=O)Nc1cccc(-c2nc(Nc3ccccc3)c3ccccc3n2)c1,44668,"inhibitor, partial curve"
c1ccc(-c2ccc(C(c3ccccc3)n3ccnc3)cc2)cc1 (stereo unspecified),50118,"inhibitor, partial curve"
CC(C)C1=CC2=CC[C@@H]3[C@](C)(CO)CCC[C@]3(C)C2CC1 (stereo partly specified),50118,"inhibitor, partial curve"
CCC(=O)OCC(=O)C1(OC(=O)CC)C(C)CC2C3CCC4=CC(=O)C=CC4(C)C3(Cl)C(O)CC21C (stereo unspecified),50118,"inhibitor, partial curve, poor fit"
CCCCCCCCCc1ccc(O)cc1,50118,"inhibitor, partial curve"
Cc1c2ccncc2c(C)c2c1[nH]c1ccccc12,7080,"inhibitor, full curve, poor fit"
Nc1ccc(S(=O)(=O)Nc2ccc(Cl)nn2)cc1,39810,"inhibitor, partial curve, poor fit"
CC1(C)C(=O)C=C[C@]2(C)C1CC(=O)[C@]1(C)C2CC[C@@]2(C)C(c3ccoc3)OC(=O)C3O[C@@]321 (stereo partly specified),50118,"inhibitor, partial curve, poor fit"
CC(C)(c1ccc(OC[C@@H]2CO2)cc1)c1ccc(OC[C@H]2CO2)cc1,39810,"inhibitor, partial curve"
CC(CN(C)C)CN1c2ccccc2Sc2ccccc21 (stereo unspecified),89125,"inhibitor, partial curve, poor fit"
CCN(CC)CCOC(=O)C(c1ccccc1)c1ccccc1,39810,"inhibitor, partial curve, poor fit"
C=C1C2CC[C@@]3(C)C(c4ccoc4)OC(=O)C[C@@]13OC1CC(=O)C(C)(C)C(C(OC(C)=O)C(=O)OC)[C@@]12C (stereo partly specified),100000,"inhibitor, partial curve, poor fit"
Cc1cccc(CNc2nc(-c3ccc(C(=O)N(C)C)cc3)nc3ccccc23)c1,19952,"inhibitor, full curve"
CCCCC(=O)OCC(=O)[C@]1(O)Cc2c(O)c3c(c(O)c2[C@H](OC2CC(NC(=O)C(F)(F)F)C(O)C(C)O2)C1)C(=O)c1c(OC)cccc1C3=O (stereo partly specified),22387,"inhibitor, full curve"
Cc1cc(C)c(NC(=O)C[C@H](CC(=O)O)c2cccc3ccccc23)c(C(=O)N2CCC3(CCCC3)CC2)c1,100000,"inhibitor, partial curve, poor fit"
Oc1ccc2c3c1O[C@H]1c4[nH]c5c(c4C[C@@]4(O)[C@@H](C2)N(CC2CC2)CC[C@]314)C[C@]1(O)[C@H]2Cc3ccc(O)c4c3[C@@]1(CCN2CC1CC1)[C@@H]5O4,25118,"inhibitor, partial curve, poor fit"
O=C(Cc1ccc(Cl)cc1)c1c(O)cc(O)cc1O,56234,"inhibitor, partial curve, poor fit"
CC(=O)[C@]1(O)CCC2C3C=C(Cl)C4=CC(=O)C5CC5[C@@]4(C)C3CC[C@]21C (stereo partly specified),2818,"inhibitor, full curve, poor fit"
CCOC(=O)C1=C(C)NC(C)=C(C(=O)OCC)C1c1ccccc1C=CC(=O)OC(C)(C)C,28183,"inhibitor, full curve"
COC(=O)CC1C(C)(C)C(=O)C2CC3=C(CC[C@]4(C)C3=CC(=O)OC4c3ccoc3)[C@@]1(C)C2=O (stereo partly specified),100000,"inhibitor, partial curve, poor fit"
CCCCCCN(CCCCCC)C(=O)Cc1c(-c2ccc(F)cc2)[nH]c2ccccc12,891.3,"inhibitor, full curve, poor fit"
Cc1nc2sccn2c(=O)c1CCN1CCC(=C(c2ccc(F)cc2)c2ccc(F)cc2)CC1,63095,"inhibitor, partial curve, poor fit"
O=c1c(-c2ccc(Cl)cc2)nc2cnc(N3CCNCC3)nc2n1CCc1ccccc1,19952,"inhibitor, partial curve, poor fit"
CC(C)ON([C@@H](C(=O)NO)C(C)C)S(=O)(=O)c1ccc(-c2ccccc2)cc1,100000,"inhibitor, single point"
Clc1ccc(C(c2ccc(Cl)cc2)n2cc[n+](CC(OCc3ccc(Cl)cc3Cl)c3ccc(Cl)cc3Cl)c2)cc1 (stereo unspecified),63095,"inhibitor, partial curve, poor fit"
ClC1=C(Cl)C2(Cl)C3C4CC(C5OC45)C3C1(Cl)C2(Cl)Cl (stereo unspecified),63095,"inhibitor, partial curve, poor fit"
O=C(/C=C/c1ccc(O)cc1)c1ccccc1O,44668,"inhibitor, partial curve, poor fit"
COc1ccc2c(c1)OCc1c-2oc2cc(OC)ccc12,56234,"inhibitor, partial curve, poor fit"
CCCN[C@@H](C)C(=O)Nc1c(C)csc1C(=O)OC,39810,"inhibitor, partial curve, poor fit"
O=c1c(O)c(-c2ccc(O)cc2)oc2ccccc12,63095,"inhibitor, partial curve, poor fit"
Cc1ccc(S(=O)(=O)NCc2ccccc2)cc1,39810,"inhibitor, partial curve"
C/C=C1/NN(CCCN2CCN(c3cccc(Cl)c3)CC2)C(=O)N1CCOc1ccccc1,44668,"inhibitor, partial curve, poor fit"

Once more, the final 3:

| Compound | potency (nM) | curve as filed |
|---|---|---|
| `O=c1c(O)c(-c2ccc(O)cc2)oc2ccccc12` | 63095 | inhibitor, partial curve, poor fit |
| `Cc1ccc(S(=O)(=O)NCc2ccccc2)cc1` | 39810 | inhibitor, partial curve |
| `C/C=C1/NN(CCCN2CCN(c3cccc(Cl)c3)CC2)C(=O)N1CCOc1ccccc1` | 44668 | inhibitor, partial curve, poor fit |